Values quoted from earlier work as cited in article PMC6061700 (Toxicological Sciences, 2018).
Marks after values point to notes of the source that are not given here.

Settings: free clinical Cmax; ref Kramer et al. (2013); cited from earlier work

COC(=O)C1=C(C)NC(C)=C(C(=O)OC)C1c1ccccc1[N+](=O)[O-] [Nifedipine]
Free Drug (free Cmax): 0.008* µM
